The values that follow come from PubChem BioAssay AID2685 (National Center for Advancing Translational Sciences (NCATS), 2010).

Each structure is given as a SMILES string. Some of the results follow. Shown are side measurements of this screen, not its main read-out; they come without a call. The list favours compounds with an active or inconclusive main result. The note in brackets gives the kind of curve behind each potency; many fits are weak.

A short description of the assay: qHTS Assay for Lipid Storage Modulators in Drosophila S3 Cells.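 For cell number change: cells counted by Cell Tracker Red CMTPX staining in the red channel.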 The settings on record: BODIPY lipid droplet fluorescence, 18-24 h; for cell number change: measured here: cell count max response, cells fed with added oleic acid. In a few lines:
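Laser-scanning cytometry quantifies lipid droplet accumulation (500–530 nm total intensity; droplet/cell object ratio) in oleic acid-fed (400 uM added) Drosophila S3 cells treated with a concentration series. 20 uM Triacsin C defined 100% inhibition.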
Background: Quantitative high-throughput screening tests each substance at several concentrations.

Where [1] appears, read: measured here: lipid fluorescence (Fed channel) AC50, cells fed with added oleic acid.
[2] abbreviates: measured here: cell number channel AC50, cells fed with added oleic acid.

`O=C(O)C1C2CCC(C2)C1C(=O)NCCc1ccccc1` (stereo unspecified): the cell number change came out at 9.33%. Also, the AC50 under setting [1] was 2.06 µM [falling, partial curve, poor fit].

For `C#CCOc1c(Cl)cc(/C=N/O)cc1OC`, the cell number change was 21.1%. Also, under setting [1], the AC50 was 6.51 µM [rising, partial curve, poor fit].

As to `COc1cccc(CN(C)CC(=O)Nc2cc3oc4ccccc4c3cc2OC)c1`, the cell number change was 20.1%. The AC50 under setting [1] was 0.82 µM [rising, full curve, poor fit].

Regarding `CC1CCN(CCCCOc2ccc(Cl)cc2)CC1`, the cell number change was -16.8%. For the same compound, under setting [1], the AC50 is 0.731 µM [falling, full curve].

For `Clc1ccc2nc(C3CCN(Cc4nnnn4C4CCCCC4)CC3)[nH]c2c1`, the cell number change is -35.6%. In addition, the AC50 under setting [2] is 18.4 µM [falling, single point]. Moreover, the concentration at half-maximal activity (AC50) under setting [1] is 23.1 µM [falling, single point].

Take `Cc1ccc(C)c(NC(=S)Nc2ncccc2C)c1`: the cell number change is 13.7%. Moreover, the AC50 under setting [1] was 0.259 µM [rising, full curve, poor fit].

Regarding `Cc1ccc(C2=NN(C(=O)CCC(=O)O)C(c3ccc4c(c3)OCO4)C2)cc1` (stereo unspecified), the cell number change was 5.96%. Also, the concentration at half-maximal activity (AC50) under setting [1] is 29.1 µM [rising, single point].

As to `O=C(Nc1ccccc1)N1CCC(C(=O)N2CCN(Cc3ccccc3)CC2)CC1`, the cell number change was -40.6%. Moreover, under setting [2], the AC50 was 0.731 µM [falling, full curve]. The AC50 under setting [1] is 16.4 µM [falling, partial curve].

For the compound `COc1ccc(S(=O)(=O)n2ccc(C)n2)cc1C`, the cell number change is -6.92%. Further, the concentration at half-maximal activity (AC50) under setting [1] is 0.13 µM [rising, full curve, poor fit].

As for `CC(C)(C)NC(=O)C1CCN(S(=O)(=O)c2cccc(C(F)(F)F)c2)CC1`, the concentration at half-maximal activity (AC50) under setting [1] was 0.082 µM [falling, full curve, poor fit].

For `Cc1cc(C)n2cc(CSC3=NCCS3)nc2n1`, the cell number change was -16.8%.

`CCN1/C(=C\C=C2\C(=O)N(c3ccccc3)C(=S)N2C)Sc2ccccc21`: the cell number change is -1.65%. The half-maximal activity concentration (AC50) under setting [1] is 1.3 µM [falling, full curve, poor fit].

Take `Cc1nc(=O)c(-c2ccccc2)c(C)n1-c1ccccc1C(=O)O`: the cell number change was -23.5%. Moreover, the AC50 under setting [1] was 2.06 µM [falling, full curve].

Take `S=C(c1ccc(-c2ccc(Cl)c(Cl)c2)o1)N1CCOCC1`: the half-maximal activity concentration (AC50) under setting [1] is 0.411 µM [falling, single point].

For `O=C(NCCc1ccccn1)c1cccc(S(=O)(=O)N2CCCCCC2)c1`, the cell number change is -19.5%. Besides, the AC50 under setting [1] is 10.3 µM [rising, partial curve].

`O=C(Cc1ccccc1)Nc1cccc(S(=O)(=O)N2CCCCCC2)c1`: the cell number change is -8.17%. The AC50 under setting [1] was 6.51 µM [rising, single point].

For `CC(C)(CO)NCC(O)Cn1cc(C=O)c2ccccc21` (stereo unspecified), the cell number change came to 25.5%. Under setting [1], the AC50 was 13 µM [rising, single point].

As for `COc1cc(/C=C2\SC(=Nc3ccc(N4CCOCC4)cc3)N(C)C2=O)ccc1OC(C)C(=O)O` (stereo unspecified), the cell number change stood at 2.65%.

On to `CCOC(=O)N1CCN(c2ncnc3c2[nH]c2ccc(F)cc23)CC1`, for which the cell number change was -30.9%. Also, under setting [2], the AC50 was 4.61 µM [falling, full curve, poor fit]. For the same compound, the AC50 under setting [1] is 13 µM [falling, partial curve].

Turning to `CCC(C)NC(=O)CN1C(=O)NC2(CCOc3ccccc32)C1=O` (stereo unspecified), the cell number change is -8.11%. Under setting [1], the half-maximal activity concentration (AC50) is 6.51 µM [falling, single point].

As to `CCCCOc1ccc(C(=O)NCC(=O)NCC(c2cccs2)N2CCOCC2)cc1` (stereo unspecified), the cell number change turned out to be 6.27%. Further, under setting [1], the half-maximal activity concentration (AC50) was 29.1 µM [rising, single point].

Consider `CCOc1ccc2ccccc2c1CNCCN1CCOCC1`, for which the cell number change came out at 9.08%. Further, under setting [1], the concentration at half-maximal activity (AC50) is 4.11 µM [falling, single point].

On to `CCCCN(CC(=O)NC1CCCC1)C(=O)C(=O)Nc1ccc2c(c1)OCCO2`, for which the cell number change is 9.46%. In addition, the AC50 under setting [1] is 29.1 µM [falling, single point].

With `O=C(c1ccncc1)N1CCN(C2CCC(c3ccccc3)CC2)CC1` (stereo unspecified), the cell number change is -11.2%. For the same compound, under setting [1], the concentration at half-maximal activity (AC50) is 6.51 µM [falling, single point].

On to `Cc1ccc(S(=O)(=O)N2CCOCC2)cc1C(=O)OCC(=O)c1ccc[nH]1`, for which the cell number change is 16.7%. Further, the concentration at half-maximal activity (AC50) under setting [1] is 0.517 µM [rising, full curve, poor fit].

Consider `Cc1ccc(N(CC(=O)NCc2ccc(F)cc2)S(=O)(=O)c2cccs2)cc1`, for which the cell number change stood at 79.7%. Also, under setting [2], the AC50 was 4.61 µM [rising, partial curve]. For the same compound, the AC50 under setting [1] was 0.58 µM [rising, single point].

In the case of `CC1CCCCN1CCNC(=O)C1CCCN(c2ncnc3c2nc2n3CCCCC2)C1` (stereo unspecified), the half-maximal activity concentration (AC50) under setting [1] was 6.51 µM [rising, single point].

As to `NC(=O)CC(NC(=O)c1ccc(Br)cc1)c1ccc(N2CCN(c3ccccc3)CC2)c([N+](=O)[O-])c1` (stereo unspecified), the cell number change is -6.15%. Besides, under setting [1], the half-maximal activity concentration (AC50) was 29.1 µM [falling, single point].

For the compound `Cc1cc(C)c(OCC(=O)N(Cc2ccccc2)C2CCS(=O)(=O)C2)c(C)c1` (stereo unspecified), the cell number change was -34.9%. For the same compound, the concentration at half-maximal activity (AC50) under setting [2] is 29.1 µM [falling, single point].

Consider `Cc1ccccc1NCC(=O)N/N=C\c1ccc2c(c1)OCO2`, for which the cell number change worked out at 83.5%. The AC50 under setting [2] was 8.2 µM [rising, partial curve].

`O=C(CSCc1ccc(Cl)cc1)Nc1nccs1`: the cell number change is 153%. In addition, the AC50 under setting [2] is 29.1 µM [rising, single point]. Moreover, the AC50 under setting [1] is 0.651 µM [rising, single point].

`O=C(NCCCN1CCN(CCCNC(=O)c2ccc3c(c2)OCO3)CC1)c1ccc2c(c1)OCO2`: the AC50 was 6.51 µM [falling, single point] under setting [2] and 6.51 µM [falling, single point] under setting [1].

Regarding `COc1ccc(OC)c(NC(=O)COc2ccc(S(=O)(=O)NC(C)C)cc2)c1`, the cell number change was determined as 4.1%. For the same compound, under setting [1], the AC50 is 0.58 µM [rising, single point].

Regarding `O=[N+]([O-])c1ccccc1/C=C/C=N/n1c(-c2ccccc2F)n[nH]c1=S`, the cell number change worked out at 4.33%.

For the compound `COc1ccc2[nH]c3c(c2c1)CCN1C(=O)N([C@@H](C)C(=O)NC2CCCCC2C)C(=O)[C@]31C` (stereo partly specified), the cell number change was -11.3%. For the same compound, under setting [1], the AC50 is 2.06 µM [falling, full curve, poor fit].

For `O=C(/C=N/O)NCC1CCNCC1`, the cell number change was 4.3%. Moreover, the half-maximal activity concentration (AC50) under setting [1] was 0.517 µM [falling, full curve].

With `Cc1ccc(CCNC(=O)CN2CCN(Cc3ccccc3F)C2=O)cc1`, the cell number change worked out at 36.3%. For the same compound, the concentration at half-maximal activity (AC50) under setting [2] was 0.0517 µM [rising, full curve, poor fit].

Consider `Cc1ccc(S(=O)(=O)N2CCC3(CC2)OCCO3)s1`, for which the cell number change was 13.5%. Also, under setting [1], the AC50 is 3.66 µM [falling, single point].

In the case of `O=C(COc1ccc(Cl)cc1Br)Nc1cccc(S(=O)(=O)N2CCCC2)c1`, the cell number change is 34.8%. Moreover, under setting [2], the AC50 was 20.6 µM [rising, partial curve].

As to `COc1ccccc1N1CCN(C2CCC(C)CC2)CC1` (stereo unspecified), the cell number change was -5.25%.

As for `CC(C)NC(=O)c1ccc(CSCc2ccccc2Cl)o1`, the cell number change is -27.7%. Under setting [2], the AC50 was 0.103 µM [falling, full curve, poor fit]. Also, under setting [1], the AC50 was 5.8 µM [falling, full curve, poor fit].

With `CC(Nc1cc(N2CCN(S(=O)(=O)N(C)C)CC2)ccc1[N+](=O)[O-])c1ccccc1` (stereo unspecified), the cell number change is -18.2%. Besides, under setting [2], the AC50 is 0.461 µM [falling, single point]. Besides, the concentration at half-maximal activity (AC50) under setting [1] is 0.517 µM [falling, full curve].

As to `CCCN(C(=O)c1ccc(N(C)S(=O)(=O)c2ccc(C)cc2)cc1)C1CCS(=O)(=O)C1` (stereo unspecified), the cell number change amounted to 58.9%. Moreover, under setting [2], the AC50 is 8.2 µM [rising, partial curve].

Turning to `CC(C)C[C@H](NC(=O)Nc1cccc(Br)c1)C(=O)O`, the AC50 under setting [1] was 1.03 µM [falling, full curve].

On to `COC(=O)c1ccccc1NC1=C/C(=N\S(=O)(=O)c2cccs2)c2ccccc2C1=O`, for which the cell number change was -91.4%. The AC50 under setting [2] is 25.9 µM [falling, partial curve]. Under setting [1], the AC50 is 29.1 µM [falling, single point].

Consider `Cc1ccc(Nc2nc(N)c(C#N)c(CC#N)c2C#N)cc1`, for which the cell number change was 53.2%. The AC50 under setting [2] was 6.51 µM [falling, single point]. For the same compound, the AC50 under setting [1] is 6.51 µM [falling, single point].

`Cc1ccc(C(=O)N2CC(=O)Nc3ccc(F)cc3C2c2ccc(F)cc2)cc1[N+](=O)[O-]` (stereo unspecified): the cell number change is 11.7%. Under setting [1], the AC50 is 1.46 µM [rising, partial curve, poor fit].

In the case of `NCCCNC(=O)c1cc2ccccc2[nH]1`, the cell number change came out at 25.5%. Also, under setting [2], the half-maximal activity concentration (AC50) is 1.46 µM [rising, full curve, poor fit].

In the case of `CCOC(=O)N1CCN(S(=O)(=O)c2ccc3c(c2)oc(=O)n3C)CC1`, under setting [1], the AC50 was 6.51 µM [falling, single point].

On to `CC(C)NC(=S)Nc1ccc(Oc2ccccc2)cc1`, for which the cell number change was -21.1%. Moreover, the half-maximal activity concentration (AC50) under setting [1] was 0.00461 µM [falling, full curve, poor fit].

With `COCC1CCN(C(=O)C2CCC(=O)N(CC3CCCCC3)C2)CC1` (stereo unspecified), the cell number change turned out to be 13.3%. Further, the AC50 under setting [1] is 4.61 µM [falling, single point].

For the compound `CCCNC(=O)COC(=O)c1n[nH]c2ccccc12`, the cell number change stood at 42.5%. For the same compound, the AC50 under setting [2] is 29.1 µM [rising, single point]. Further, under setting [1], the AC50 is 23.1 µM [rising, single point].

`Cc1ccc2nc(N3CCC(C(=O)NC4CCCCC4)CC3)sc2c1`: the cell number change came out at 5.01%.

In the case of `CCC1CCCCN1CCCNC(=O)c1cn(CC)c2ccc(S(=O)(=O)N3CCc4ccccc4C3)cc2c1=O` (stereo unspecified), the half-maximal activity concentration (AC50) under setting [1] was 0.82 µM [rising, full curve, poor fit].

Turning to `Cc1ccccc1NC(=O)c1cnn(-c2ccccc2)c1NC(=O)c1ccco1`, the cell number change was -0.325%. Moreover, the AC50 under setting [1] was 0.184 µM [rising, full curve, poor fit].

Regarding `CC1=NN(c2ccccc2)C(=O)C1/C=C1/NC(=S)NC1=O` (stereo unspecified), the cell number change was -26%. Also, the AC50 under setting [1] is 5.17 µM [falling, full curve, poor fit].

`COC(=O)CN1C(=O)N/C(=C/c2cc(Cl)c(OC)c(OC)c2)C1=O`: the cell number change stood at 2.15%. For the same compound, the concentration at half-maximal activity (AC50) under setting [1] was 6.51 µM [falling, single point].

Turning to `COC(=O)c1cc2ccsc2n1Cc1nc(-c2ccc(Cl)cc2)oc1C`, the cell number change was determined as 10%.

Take `Cc1[nH]c2ccc(C(=O)OCC(=O)Nc3cccc(S(N)(=O)=O)c3)cc2c1C`: the cell number change was -0.775%. Further, the AC50 under setting [1] was 0.651 µM [falling, full curve].

By AC50 is commonly meant the concentration giving half of the maximal activity seen.
